Measured values as given in PubChem BioAssay AID1487 (National Center for Advancing Translational Sciences (NCATS), 2009).
The list shows a part of the results. Shown are side measurements of this screen, not its main read-out; they come without a call. Most of these compounds were active or inconclusive in the main read-out, so they are no random draw. Words in brackets tell the shape of the fitted curve; partial curves, single points and poor fits give uncertain potencies.

Test: qHTS Assay for Modulators of Lamin A Splicing
Conditions: HeLa LMNA splicing GFP/RFP minigene ratio, 48 h
In short: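 S3 HeLa stable clones carrying a lamin A-EGFP splicing minigene plus DsRed2 were seeded at 600 cells/well in Opti-MEM with 2% FBS, pin-dosed and incubated 48 h at 37°C. Acumen cytometry (488 nm) gave the GFP/RFP total-intensity ratio.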

[1] = measured here: GFP splicing reporter channel
[2] = measured here: RFP viability control channel

SMILES | AC50 [1] | AC50 [2]
CCN(CC)c1nc(Nc2ccccc2)nc(Oc2ccc(=O)n(C)n2)n1 | 31.6 µM [rising, single point] | 35.5 µM [rising, single point]
CN(C)CCCN(C(=O)c1ccc2c(c1)CCCC2)c1nc2ccc(F)cc2s1 | – | 1 µM [rising, full curve, poor fit]
Cc1cnc(C(=O)Nc2nnc(SCc3c(Cl)cccc3Cl)s2)cn1 | 12.6 µM [rising, single point] | 12.6 µM [rising, partial curve]
CC/C(=C\C1CCCCC1)C(NP(=O)(c1ccccc1)c1ccccc1)c1ccccc1 (stereo not given) | 35.5 µM [falling, single point] | 25.1 µM [falling, single point]
O=C(NCC(c1cccs1)N1CCOCC1)c1cc([N+](=O)[O-])ccc1Cl (stereo not given) | 5.62 µM [falling, single point] | –
Cc1cc(C)n(CNc2nc(C(F)(F)F)cs2)n1 | – | 11.2 µM [rising, single point]
Cc1ccc(NC(=S)N(CCCN2CCN(C)CC2)Cc2cccs2)cc1C | – | 0.251 µM [falling, full curve]
COc1ccc(C(=O)/C=C/c2ccc(N3CCCCC3)c([N+](=O)[O-])c2)cc1 | 35.5 µM [falling, single point] | 35.5 µM [falling, single point]
CCOc1ccc(CNC(=O)c2ccc(Sc3ccc(C)cc3)c(NC(C)=O)c2)cc1OC | – | 12.6 µM [rising, partial curve]
CCOc1cc(C(=O)N2CCc3cc(OC)c(OC)cc3C2)ccc1OC(F)F | 4.47 µM [rising, full curve, poor fit] | 2.82 µM [rising, full curve]
CN(C)c1ccc(N=Nc2ccccc2C(=O)OCC(=O)N(C)c2ccccc2)cc1 | 28.2 µM [rising, single point] | 22.4 µM [rising, partial curve, poor fit]
Cc1ccccc1NC(=O)c1ccccc1O | 31.6 µM [rising, single point] | 31.6 µM [rising, single point]
Cc1ccc(C2CCN(C(=O)c3cnn(-c4ccccc4Cl)c3C3CCN(C(=O)OC(C)(C)C)CC3)C2)cc1 (stereo not given) | 31.6 µM [falling, partial curve] | 35.5 µM [falling, partial curve]
CCOC(=O)C1CCN(c2nc(C)cc(C)c2C#N)CC1 | – | 0.0891 µM [rising, full curve, poor fit]
COc1cc(C2CC(=O)NC3=C2C(=O)CC(C)(C)C3)ccc1O (stereo not given) | 6.31 µM [rising, single point] | –
COc1ccc(NC(=O)C(F)(OC)C(F)(F)F)c(OC)c1 (stereo not given) | 4.47 µM [falling, single point] | –
O=C(Nc1ccn(-c2ccccc2)n1)c1ccc(S(=O)(=O)N2CCCCCC2)cc1 | – | 10 µM [rising, partial curve]
O=C(CN1C(=O)c2cccc3cccc1c23)N1CCN(Cc2ccc3c(c2)OCO3)CC1 | – | 28.2 µM [rising, single point]
CC1CCc2nc(NC(=O)CSc3nc4ccccc4o3)sc2C1 (stereo not given) | 6.31 µM [rising, full curve, poor fit] | 3.16 µM [rising, full curve]
COc1cc(NC(=O)COc2ccc(-n3ccnc3)cc2)cc(OC)c1 | 14.1 µM [falling, partial curve, poor fit] | –
COc1ccc(-n2c(C)cc(/C=C/c3nc(O)c([N+](=O)[O-])c(=O)[nH]3)c2C)cc1 | – | 0.282 µM [falling, full curve, poor fit]
C/C(=N/NC(=O)Nc1ccccc1)c1ccc(C)cc1 | 35.5 µM [rising, single point] | –
COc1cc2c(cc1OC)C(/C(C#N)=N\O)=NC(C)(C)C2 | – | 5.01 µM [rising, full curve, poor fit]
COCCCNc1ncnc2c1c(-c1ccccc1)cn2-c1ccc(C)c(Cl)c1 | 10 µM [falling, partial curve] | 15.8 µM [falling, partial curve, poor fit]
C=CCN(c1ccc(OC)cc1)S(=O)(=O)c1ccc(Cl)c(C(=O)OCC(=O)NC2CC2)c1 | 2.51 µM [falling, partial curve, poor fit] | 0.00316 µM [falling, full curve, poor fit]
CCOC(=O)CCC(=O)Nc1ccc(S(=O)(=O)N2CCCCC2)cc1 | – | 0.01 µM [falling, full curve, poor fit]
CCn1c(=S)[nH]c2cc(S(=O)(=O)N3CCCCC3)ccc21 | – | 8.91 µM [rising, partial curve]
COc1c(Cl)cc(Cl)cc1CNCCO | 20 µM [rising, partial curve, poor fit] | –

SMILES | AC50 [1] | AC50 [2]
Cc1cc(C)c2[nH]c(=O)c(CN(Cc3cccs3)C(=S)NCc3ccco3)cc2c1 | 35.5 µM [rising, single point] | 25.1 µM [rising, single point]
N#C/C(=C/c1ccccc1)C(=O)NCc1ccccc1 | 11.2 µM [falling, partial curve] | 11.2 µM [falling, partial curve]
CCN(CCCNc1ncnc2nc[nH]c12)c1cccc(C)c1 | – | 15.8 µM [rising, partial curve]
CC1Cc2ccccc2N1C(=O)CSc1nc(-c2ccccc2)cs1 (stereo not given) | – | 31.6 µM [rising, single point]
CC(C)(Oc1ccc(Cl)cc1)C(=O)NCCCn1ccnc1 | – | 11.2 µM [rising, single point]
Cc1cccc(OCc2ccc(-c3nc(C#N)c(N4CCC(C(N)=O)CC4)o3)o2)c1 | 35.5 µM [falling, single point] | 35.5 µM [falling, single point]
CCOC(=O)c1cccc(NC(=O)Cn2c(=O)nc(-c3ccccc3)c3ccccc32)c1 | 12.6 µM [falling, partial curve, poor fit] | 25.1 µM [falling, partial curve]
O=C(Nc1cc(C(F)(F)F)ccc1Cl)c1cc(S(=O)(=O)NCc2ccccc2)ccc1F | 0.0708 µM [falling, full curve, poor fit] | –
Fc1ccc(NC(=S)NCc2cccs2)cc1 | – | 35.5 µM [rising, single point]
CC(C)CCNC(=O)NC(=O)COc1c(F)c(F)cc(F)c1F | 12.6 µM [rising, partial curve, poor fit] | –
Cc1c(Cl)cccc1-c1ccc(C(=O)N2CCN(c3ccc([N+](=O)[O-])cc3)CC2)o1 | 3.55 µM [rising, full curve, poor fit] | 7.08 µM [rising, full curve]
CC(=O)Nc1cccc(NC(=O)c2ccc([N+](=O)[O-])cc2Cl)c1 | 35.5 µM [rising, single point] | –
Cc1c(C(=O)NCCc2ccc3c(c2)OCCO3)oc2ccccc12 | – | 20 µM [rising, single point]
O=c1[nH]c(SCc2nc3ccccc3c(=O)n2-c2ccccc2C(F)(F)F)nc2ccccc12 | – | 8.91 µM [rising, partial curve]
O=C(Nc1ncc(Cc2cccc([N+](=O)[O-])c2)s1)c1ccco1 | 1.26 µM [rising, full curve, poor fit] | –
Oc1ccc(Cl)cc1-c1cc(-c2ccccc2)n[nH]1 | – | 12.6 µM [rising, partial curve]
O=C(O)COC(=O)Cc1ccccc1Nc1c(Cl)cccc1Cl | 0.0501 µM [falling, full curve] | 0.0447 µM [falling, full curve]
CCCS(=O)(=O)c1nc(S(=O)(=O)c2ccc(C)cc2)c(N2CCc3ccccc3C2)s1 | – | 1.41 µM [rising, partial curve]
N/C(=N\OC(=O)c1cnn(-c2ccccc2)c1C(F)(F)F)c1ccc(C(F)(F)F)cc1 | 12.6 µM [falling, single point] | 15.8 µM [falling, partial curve, poor fit]
Cc1ccc(C)c(N2CCN(C(=O)CCS(=O)(=O)c3cccc4nonc34)CC2)c1 | – | 15.8 µM [rising, single point]
Fc1ccccc1Cn1nnc(-c2ccc3c(c2)OCO3)n1 | 3.98 µM [rising, partial curve, poor fit] | –
C/C(=N\NC(=O)c1ccco1)c1cc2ccccc2o1 | – | 11.2 µM [rising, partial curve, poor fit]
Nc1cccc(C(=O)OCC(=O)Nc2cccc3c2C(=O)c2ccccc2C3=O)c1 | 15.8 µM [falling, single point] | 8.91 µM [falling, single point]
COc1ccccc1CCNC(=O)CCn1c(=O)c2cccn2c2ccc(F)cc21 | 0.0501 µM [rising, full curve, poor fit] | –
O=S(=O)(Nc1cccc2ncccc12)c1cccs1 | – | 12.6 µM [rising, partial curve]
CCOc1ccc(NC(=O)COC(=O)C2(C)CC2(Cl)Cl)c([N+](=O)[O-])c1 (stereo not given) | – | 1.26 µM [falling, partial curve]
Clc1nccc2c1ccc1ccccc12 | 25.1 µM [falling, single point] | 5.62 µM [falling, full curve, poor fit]

Record cards (already shown). Values in the order: AC50 [1]	AC50 [2]
Cc1cc(C)c2[nH]c(=O)c(CN(Cc3cccs3)C(=S)NCc3ccco3)cc2c1 is listed as 35.5 µM [rising, single point]	25.1 µM [rising, single point]
O=C(O)COC(=O)Cc1ccccc1Nc1c(Cl)cccc1Cl is listed as 0.0501 µM [falling, full curve]	0.0447 µM [falling, full curve]
Cc1c(C(=O)NCCc2ccc3c(c2)OCCO3)oc2ccccc12 is listed as –	20 µM [rising, single point]
